Literature values as cited in patent publication US20070166729A1, “Method and reagent for sequencing” (Hitachi, Ltd., priority 2005, published 2007).
For at least one compound, name, drawing or mass did not settle the structure.

Test system: thermostable PPDK
Settings: substrate named in brackets; cited from earlier work

CC(=O)C(=O)O [pyruvate]
Michaelis constants: 1.3104 M (pyruvate)
